Experimental data: PubChem BioAssay AID2685 (National Center for Advancing Translational Sciences (NCATS), 2010)
Some of the results follow. The main result of the screen is listed elsewhere. These columns were measured beside it and carry no call. Compounds called inactive in the main read-out are mostly missing here. The note in brackets gives the kind of curve behind each potency; many fits are weak.

Experiment: qHTS Assay for Lipid Storage Modulators in Drosophila S3 Cells;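 on cell number change: cells counted by Cell Tracker Red CMTPX staining in the red channel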
Conditions: BODIPY lipid droplet fluorescence, 18-24 h; for cell number change: measured here: cell count max response, cells fed with added oleic acid
In short: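 Drosophila S3 cells got compounds at several concentrations plus oleic acid (400 uM solution). Laser-scanning cytometry with 488 nm excitation read lipid droplets at 500-530 nm and cells at 575-640 nm. Percent activity was relative to 20 uM Triacsin C.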

[1] = measured here: cell number channel AC50, cells fed with added oleic acid
[2] = measured here: lipid fluorescence (Fed channel) AC50, cells fed with added oleic acid

Row | Compound | cell number change [%] | AC50 [1] | AC50 [2]
1 | CCOCCCn1c(SCC(=O)NCc2ccc3c(c2)OCO3)nc2ccccc2c1=O | 6.58 | 0.651 µM [rising, partial curve] | –
2 | CC1CCCCN1S(=O)(=O)c1ccc(S(=O)(=O)N2CCN(c3ccc(F)cc3)CC2)cc1 (stereo not drawn) | -12.6 | 2.06 µM [falling, partial curve, poor fit] | 0.731 µM [rising, single point]
3 | O=C(c1cc2c(s1)-c1ccccc1OC2)N1CCN(c2ccccn2)CC1 | -2.48 | – | –
4 | O=C(NCc1cccnc1)C(=O)Nc1nc2ccccc2s1 | 39.1 | 29.1 µM [rising, single point] | 29.1 µM [rising, single point]
5 | COc1cc2c(cc1OC)CN(C(=O)c1cc(=O)c3ccccc3o1)CC2 | -0.4 | – | –
6 | COc1ccccc1-n1c(-c2ccc(NS(C)(=O)=O)cc2)n[nH]c1=S | -54.8 | 16.4 µM [falling, single point] | –
7 | CCCOc1ccccc1C1NC(=O)NC(C)=C1C(=O)OCc1ccccc1 (stereo not drawn) | -36.8 | 29.1 µM [falling, single point] | 29.1 µM [falling, single point]
8 | CCOC(=O)C1CCN(S(=O)(=O)c2cccc(-c3cn4cccnc4n3)c2)CC1 | -25.7 | – | 5.17 µM [rising, partial curve]
9 | CC(=O)c1ccc(OCC(=O)Nc2ccc3nc(C)sc3c2)cc1 | – | – | 2.31 µM [falling, partial curve]
10 | CCc1ccc2c(c1)cc(CN(C(=S)Nc1ccc(Cl)cc1)C1CC1)c1nnnn12 | – | 0.259 µM [rising, full curve] | –
11 | Cc1ccc(C)c(S(=O)(=O)NCc2ccc(C(=O)N3CCN(C)CC3)cc2)c1 | -1.62 | – | 20.6 µM [falling, partial curve]
12 | COc1ccc(C(=O)NC2CC(C)(C)Cc3c2cnn3-c2ccccc2C)o1 (stereo not drawn) | -15.6 | – | 29.1 µM [falling, single point]
13 | O=C(Nc1ccccc1Sc1ccccc1)c1ccc(F)cc1 | 24.2 | – | 20.6 µM [rising, partial curve]
14 | Cc1ccccc1C(=O)NC(=S)Nc1ccccc1C(=O)O | -19.7 | 0.0731 µM [falling, full curve, poor fit] | 0.0651 µM [falling, full curve, poor fit]
15 | O=C1Nc2ccccc2C12Nc1ccccc1-c1nc3ccccc3n12 (stereo not drawn) | -55.3 | 20.6 µM [falling, partial curve] | –
16 | O=C(/C=C(O)/C=C/c1ccc(O)cc1)/C=C/c1ccc(O)cc1 | -99.8 | 8.2 µM [falling, partial curve] | 14.6 µM [falling, partial curve]
17 | O=C(O)c1cccnc1NC1CCCC1 | – | – | 0.58 µM [falling, single point]
18 | CCCOc1ccc(OCCCCNC(C)CC)cc1 (stereo not drawn) | -44.3 | 29.1 µM [falling, single point] | –
19 | CCN(CC)c1ccc2c(-c3ccc(S(=O)(=O)O)cc3S(=O)(=O)[O-])c3ccc(=[N+](CC)CC)cc-3oc2c1 | -89.2 | – | 0.731 µM [falling, full curve]
20 | CC(C)CC(OC(=O)c1cccs1)C(=O)NCC1CCCO1 (stereo not drawn) | -12 | – | –

Row | Compound | cell number change [%] | AC50 [1] | AC50 [2]
21 | Cc1occc1C(=O)Nc1cccc(C(=O)O)c1 | -56.6 | 5.8 µM [falling, full curve] | 4.11 µM [falling, full curve]
22 | CN(C)C(CNC(=O)c1cccc(S(=O)(=O)NCc2ccccc2)c1)c1ccco1 (stereo not drawn) | 119 | 20.6 µM [rising, single point] | –
23 | O=C(CC1CC2CCC1C2)NCCc1ccc(Cl)cc1 (stereo not drawn) | 12.5 | – | 0.731 µM [rising, partial curve, poor fit]
24 | Cc1ccc(OCCC(=O)OCC(=O)N2CCN(S(=O)(=O)c3ccc(C)cc3)CC2)cc1 | 3.52 | – | 3.66 µM [rising, partial curve]
25 | CCN1CCC(NCCc2ccc(F)cc2)CC1 | -5.52 | – | –
26 | COc1ccc(C(=O)c2ccc(Br)cc2)cc1 | -59.2 | 6.51 µM [falling, partial curve] | 5.8 µM [falling, single point]
27 | COc1cc2cc(-c3ccc(O)cc3O)nc(C)c2cc1OC | -51.7 | 6.51 µM [falling, partial curve] | 7.31 µM [falling, partial curve]
28 | Cc1ccc(Cl)cc1NC(=O)CN1CCN(S(=O)(=O)N2CCOCC2)CC1 | -10.3 | 0.259 µM [falling, partial curve, poor fit] | 29.1 µM [rising, single point]
29 | Cc1cc(C)c2nc(SCC#N)cc(C)c2c1 | -9.75 | – | 0.651 µM [falling, full curve, poor fit]
30 | Cc1ccc(NCc2ccc(O)c3ncccc23)cc1 | -39.9 | 5.8 µM [falling, partial curve, poor fit] | 13 µM [falling, partial curve, poor fit]
31 | CCC1CCCCN1C(=O)CCS(=O)(=O)c1ccccc1 (stereo not drawn) | 13 | – | 5.17 µM [rising, full curve, poor fit]
32 | Cc1cc(C)cc(NC(=O)Nn2cnnc2)c1 | 57.9 | 5.8 µM [rising, partial curve] | 29.1 µM [rising, partial curve]
33 | Brc1ccc(C2=CC(c3ccco3)n3ncnc3N2)cc1 (stereo not drawn) | – | 0.651 µM [rising, single point] | –
34 | N#Cc1ccccc1OCC(=O)NC(=O)NCc1ccco1 | -2.72 | – | 9.2 µM [rising, single point]
35 | O=C(CCCN1C(=O)C(c2ccccc2)Oc2cccnc21)NCCc1ccc(Cl)cc1 (stereo not drawn) | -5.9 | – | –
36 | COc1cc(/C=C/C(=O)OCC(=O)NCc2ccccc2OC)ccc1O | 24.6 | – | 14.6 µM [rising, partial curve]
37 | CC1Oc2ccccc2N(CC(=O)Nc2ccc3c(c2)OCCO3)C1=O (stereo not drawn) | – | 5.17 µM [rising, single point] | –
38 | CCc1ccc(CNC(=O)c2ccc3c(c2)NC(=O)C(N2CCOCC2)S3)cc1 (stereo not drawn) | -12.7 | – | 23.1 µM [falling, single point]
39 | c1ccc(NCc2ccncc2)cc1 | -0.525 | – | 29.1 µM [rising, single point]
40 | Cc1noc(C)c1S(=O)(=O)Nc1ccc(C(=O)Nc2ccc(OC(F)(F)F)cc2)cc1 | 14.1 | – | 25.9 µM [rising, single point]

Complete entries, quoted from the list. Order of values: cell number change [%] | AC50 [1] | AC50 [2]
Cc1cc(C)c2nc(SCC#N)cc(C)c2c1 is listed with -9.75 | – | 0.651 µM [falling, full curve, poor fit]
CC(=O)c1ccc(OCC(=O)Nc2ccc3nc(C)sc3c2)cc1 is listed with – | – | 2.31 µM [falling, partial curve]

(further entries)

Row | Compound | cell number change [%] | AC50 [1] | AC50 [2]
41 | COc1cccc(C(=O)Cn2c(=O)n(CC3CCCO3)c(=O)c3ccccc32)c1 (stereo not drawn) | 40.1 | 4.11 µM [rising, single point] | 5.8 µM [rising, partial curve]
42 | CCc1cc2c(=O)[nH]c(Cc3ccccc3)nc2s1 | 72.2 | 16.4 µM [rising, partial curve] | 29.1 µM [rising, single point]
43 | c1csc(CN2CCOCC2)c1 | -46 | 3.66 µM [falling, full curve] | 29.1 µM [falling, single point]
44 | Cc1ccc(-c2nn3c(-c4cccc(Cl)c4)nnc3s2)cc1 | -5.17 | – | 0.651 µM [rising, full curve, poor fit]
45 | CS(=O)(=O)c1nc2c(cc1C#N)CCCC2 | 11.4 | 0.146 µM [rising, full curve, poor fit] | –
46 | Cc1nc2nc(COc3ccccc3)[nH]n2c(=O)c1Cc1ccccc1 | – | 6.51 µM [falling, partial curve] | 5.17 µM [falling, partial curve]
47 | Brc1cccc(-c2nnc3sc(CN4CCC5(CC4)OCCO5)cn23)c1 | – | 5.17 µM [rising, single point] | 6.51 µM [rising, single point]
48 | COc1ccc(CN(Cc2nc3ccccc3c(=O)[nH]2)C(=O)NC2CCCCC2)cc1 | -9.84 | – | –
49 | CC(=O)NS(=O)(=O)c1ccc(NC(=S)NC(=O)COc2ccccc2C)cc1 | 14.6 | 2.06 µM [rising, partial curve] | 2.31 µM [falling, partial curve]
50 | CC(=C/c1ccccc1)/C=N/NC(=O)c1nnn(-c2nonc2N)c1CN1CCC(C)CC1 | 15.9 | – | 6.51 µM [falling, single point]
51 | O=S(=O)(Cc1ccc(Cl)cc1)CC(O)COCc1ccccc1 (stereo not drawn) | – | – | 0.13 µM [falling, full curve]
52 | O=C(CNC(=O)c1cc(=O)[nH]c2ccccc12)Nc1ccc(F)c(F)c1 | -11.9 | – | –
53 | COc1ccc(S(=O)(=O)N(CC(=O)NCC2CCCO2)c2ccc(F)cc2)cc1OC (stereo not drawn) | – | 0.651 µM [rising, single point] | 29.1 µM [rising, single point]
54 | Cc1nnc(NC(=O)CSc2nnc(Cc3ccccc3)n2Cc2ccccc2)s1 | 3.64 | – | –
55 | CC1CCC(NC(=O)CCNC(=O)c2ccccc2)CC1 (stereo not drawn) | -100 | 18.4 µM [falling, partial curve, poor fit] | 29.1 µM [falling, partial curve, poor fit]
56 | Cc1noc(C)c1-c1nc(CSc2ccccc2)no1 | -0.264 | – | 3.26 µM [rising, partial curve, poor fit]
57 | O=C(CN1C(=O)CSc2ccccc21)Nc1ccc2c(c1)OCCO2 | – | 2.31 µM [rising, partial curve] | 4.11 µM [rising, partial curve]
58 | C=CCOc1ccc2ccccc2c1/C=N/O | -21.4 | – | 0.013 µM [falling, full curve, poor fit]
